These results are taken from PubChem BioAssay AID1307 (SRMLSC, 2008).

Molecules are shown by their SMILES. Fewer than 10 of roughly 1,200 compounds were called active.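 How the source made its calls: active means inhibition reaching a set limit at one or more tested concentrations; inactive means inhibition under that limit at every dose.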 This is one part of the list. Entries with a potency or affinity are not part of this list.

This experiment in a line: yeast RAM network inhibitors, dose response, S. cerevisiae (AID 1307).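 Further: 0% = DMSO vehicle wells and 100% = 10 µM 1-NA-PP1 control; higher inhibition means more yeast growth since RAM block rescues cells from 5-FOA.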 Particulars: S. cerevisiae RAM network URA3 reporter, 5-FOA growth OD615, hits give high values, yeast express analog-sensitive mutant Cbk1 kinase; at 100 µM unless noted.
In the case of `Cc1ccc(C2(CCNS(=O)(=O)c3ccc(C)cc3)CCOC(C(C)C)C2)cc1` (configuration not stated), the max inhibition is inactive: 2.49% [at 1.563 µM]. Then `Nc1nc(SCC(=O)NCc2ccc(F)cc2)[nH]c(=O)c1NC(=O)c1ccc(Cl)cc1`, with inactive: 4.85%. Then `CCOC(=O)c1ccc(NC(=O)COC(=O)c2cccc(Oc3ccccc3)c2)cc1`, with inactive: 2.64% [at 50 µM]; and `O=C(CSc1nnc(SCc2ccc(Cl)cc2)s1)c1ccc2c(c1)OCO2`, with inactive: 2.44% [at 25 µM]. The result for `O=C(Nc1ccccc1)C1=C[C@H](C2CCCCC2)C[C@H](OCc2ccc(CO)cc2)O1` reads inactive: 4.12%; that for `Cn1nc(C(F)(F)F)c(/C=N/OC(=O)c2ccccc2)c1SCc1ccccc1Cl`, inactive: 2.79% [at 50 µM]; that for `COc1ccc(OCCCn2cccc2/C=C2/C(=N)N3OC(C)=CC3=NC2=O)cc1`, inactive: 1.82% [at 3.125 µM]. Regarding `COc1ccc(C(C)(C)C)cc1NC(=O)COC(=O)c1cc(SC)ccc1Cl`, the max inhibition is inactive: 3.84% [at 50 µM].

Take `O=C(/C=C/c1cccc([N+](=O)[O-])c1)NCCSCc1ccc(Cl)cc1Cl`: the max inhibition is inactive: 2.82% [at 12.5 µM]. In the case of `O=C(CCCOc1ccc(Cl)cc1Cl)N/N=C/c1ccccc1`, the max inhibition is inactive: 2.38% [at 3.125 µM]. The result for `O=[N+]([O-])c1ccc(COc2cccc(CNc3ccc(Br)cc3)c2)cc1` reads inactive: 3.95% [at 25 µM]. The result for `CCOC(=O)C(C)Sc1cc(CS(=O)(=O)c2ccccc2)nc(-c2ccccc2)n1` (configuration not stated) reads inactive: 5.53%; that for `CCCCCOc1ccc(CSc2ncn[nH]2)cc1`, inactive: 1.43% [at 6.25 µM]. Then `COc1ccc(CNC(=O)c2cccc(-c3ccc(C)c4ccccc34)n2)cc1`, with inactive: 5.18%; and `C=CCn1c(COc2ccc3c(c2)CCCC3)nnc1SCC(=O)Nc1cccc(SC)c1`, with inactive: 3.16% [at 50 µM]; and `COc1ccccc1-n1cnc2c(c1=O)c1nc3ccccc3nc1n2-c1ccc(C)cc1`, with inactive: 8.35%. On to `COc1cc(-c2nc(-c3cccc(C(F)(F)F)c3)no2)cc(OC)c1OC`, for which the max inhibition was inactive: 1.08% [at 3.125 µM]. Then `O=c1c2ccccc2c(C=NCCc2ccccc2)c(O)n1Cc1ccccc1`, with inactive: 4.57%; and `COC(=O)c1nn(-c2ccccc2)c(Cl)c1/C=N/OCc1ccc(Cl)cc1Cl`, with inactive: 2.89% [at 0.782 µM]; and `COc1ccc(NC(=O)N2CCCC(c3nc(-c4ccc(C(C)C)cc4)no3)C2)cc1` (configuration not stated), with inactive: 1.82% [at 3.125 µM].

For `CCCCCCCCNC(=O)CC(NS(=O)(=O)c1ccc(NC(C)=O)cc1)C(C)C` (configuration not stated), the max inhibition was inactive: 2.68% [at 50 µM]. Then `Cc1cc(C)n(-c2ccc(C(=O)Oc3ccc4c(c3)OCO4)cc2)n1`, with inactive: 3.58%. The result for `CCn1c(SCc2nc3ccccc3c(=O)[nH]2)nc2ccccc21` reads inactive: 1.27% [at 1.563 µM].

Take `O=C(CSc1nc(-c2ccccc2)cs1)Nc1ccccc1[N+](=O)[O-]`: the max inhibition is inactive: 2.56% [at 1.563 µM]. Then `Cc1cccc(N2CCN(C(=O)c3cnn4c(C(F)F)cc(-c5ccccc5)nc34)CC2)c1C`, with inactive: 6.71%.

Take `CCc1ccc(N/C(SCc2cccc(F)c2)=C(/C#N)C(=O)NCc2ccco2)cc1`: the max inhibition is inactive: 2.59%. Consider `CC(C)CNS(=O)(=O)c1ccc(CCC(=O)Nc2cc(Cl)ccc2Oc2ccccc2)cc1`, for which the max inhibition is inactive: 4.87% [at 25 µM]. The result for `Cc1ccccc1OCCC(=O)Nc1cccc(S(=O)(=O)Nc2ccccc2Cl)c1` reads inactive: 2.67% [at 0.196 µM]. Then `N#C/C(=C\c1c[nH]c2ccccc12)C(=O)Nc1ncc(Cc2ccc(Cl)cc2Cl)s1`, with inactive: 9.09%; and `O=C(CC(Nc1ccccc1Cl)C(=O)OCC(=O)c1cccs1)c1ccccc1` (configuration not stated), with inactive: 3.84% [at 3.125 µM]; and `COc1cc2c(=O)n(Cc3ccco3)c(=O)n(CC(=O)c3ccc(Br)cc3)c2cc1OC`, with inactive: 3.72% [at 0.196 µM].

Consider `O=C(c1cccc(Cl)c1)N1CCCC(c2ccc(Cl)cc2)=N1`, for which the max inhibition was inactive: 2.26% [at 6.25 µM]. The result for `O=C(/C=C/c1ccc2c(c1)OCCCO2)c1ccc2ccccc2c1O` reads inactive: 5.19%; that for `O=C(NCc1ccccc1)c1cccc(COc2ccc3c(c2)CCC3)c1`, inactive: 9.25%; that for `O=C(CSc1ccc(Cl)cc1)N1CCN(c2ccc(Cl)cc2[N+](=O)[O-])CC1`, inactive: 2.64% [at 50 µM].

Consider `CCCC(c1nnnn1Cc1ccco1)N1CCN(c2cc(Cl)ccc2C)CC1` (configuration not stated), for which the max inhibition is inactive: 8.35%.

With `COc1ccc(Cn2nnnc2C(C(C)C)N(Cc2ccco2)Cc2cccs2)cc1` (configuration not stated), the max inhibition was inactive: 2.82%. The result for `CCCOc1ccc(N2C(=O)CC(N(CCc3ccccc3)C(=O)c3ccccc3)C2=O)cc1` (configuration not stated) reads inactive: 3.2% [at 1.563 µM]; that for `C=CCc1cccc(/C=N/NC(=O)C(C)Nc2ccc(C)cc2)c1O` (configuration not stated), inactive: 2.46% [at 0.782 µM]; that for `O=C(c1cccs1)N(CC1CCCO1)c1nc(-c2ccccc2)cs1` (configuration not stated), inactive: 2.67% [at 3.125 µM]. Then `CCCCNS(=O)(=O)c1ccc(NC(=O)C(Sc2ccccc2)c2ccccc2)cc1` (configuration not stated), with inactive: 2.87% [at 3.125 µM]. Then `COc1ccc(CCN(Cc2cccs2)S(=O)(=O)c2ccc(C(=O)O)cc2)cc1OC`, with inactive: 5.39%.

Regarding `C=CCSC1=N/C(=C\c2cc(OC)c3c(c2)OCO3)C(=O)S1`, the max inhibition is inactive: 3.36% [at 3.125 µM]. Then `CC1CCCN(C(=O)C(C)Sc2nc(-c3ccccc3)cc(C(F)(F)F)n2)C1` (configuration not stated), with inactive: 3.6% [at 25 µM].

Regarding `COc1cccc(CN(Cc2ccco2)C(c2ccc(F)cc2)c2nnnn2C(C)(C)C)c1` (configuration not stated), the max inhibition is inactive: 5.18%. The result for `Cc1ccc(S(=O)(=O)N2CCC(=O)N(C(COCc3ccc(C(F)(F)F)cc3)C(C)C)CC2)cc1` (configuration not stated) reads inactive: 3.08% [at 1.563 µM]; that for `CCOc1cc(C2NN=C(c3ccccc3)S2)ccc1OCc1ccc(F)cc1` (configuration not stated), inactive: 3.88%. Then `COc1ccc(N=C2S/C(=C\c3ccc(C)s3)C(=O)N2CC(C)C)cc1`, with inactive: 4.62% [at 50 µM]. For the compound `C/C(=N\Nc1nc2c(s1)CCCC2)c1ccc(Cl)cc1`, the max inhibition was inactive: 3.46% [at 1.563 µM]. Then `COc1ccc(-c2nc3ccccc3c(=O)n2CCOc2ccc(C)cc2C)cc1`, with inactive: 4%; and `Cc1cccc(CSCCNC(=O)c2ccc(N(C)S(=O)(=O)c3ccccc3)cc2)c1`, with inactive: 4%; and `COc1cccc(C(=O)/C=C/c2ccc(N3CCCCC3)c([N+](=O)[O-])c2)c1`, with inactive: 4.24%. Then `CCOCCCNC(=S)N1CCCN(c2nc3c(C)c(C)ccc3cc2C#N)CC1`, with inactive: 6.21%. On to `O=C(NCc1ccccc1)C1=C[C@H](c2ccc(C(F)(F)F)cc2)C[C@H](OCc2ccc(CO)cc2)O1`, for which the max inhibition is inactive: 2.75% [at 6.25 µM].

Take `CCCN(CCC)c1nc2ccccc2nc1C(C#N)C(=O)OC(C)COC` (configuration not stated): the max inhibition was inactive: 2.6%. Take `O=S(=O)(NCCSCc1ccc(Cl)cc1Cl)c1ccc2c(c1)OCCO2`: the max inhibition is inactive: 2.05% [at 12.5 µM].

For `C/C(N)=C(/C#N)C(=O)CSc1nc2ccccc2c(=O)n1-c1ccc(C)c(Cl)c1`, the max inhibition is inactive: 8.31%.

As to `CN1C(=O)/C(=C/c2ccccc2OCc2cccc(F)c2)NC1=S`, the max inhibition is inactive: 9.68%.

Turning to `Cc1ccc(S(=O)(=O)N2c3cc(C)ccc3OCC2C(C)(C)C)cc1` (configuration not stated), the max inhibition is inactive: 3.04%. The result for `Cc1ccccc1C(=O)NC(=S)Nc1ccc(Oc2ccc(Cl)cc2)cc1` reads inactive: 3.72% [at 50 µM]; that for `Cc1ccc(N2N=C(c3ccc(F)cc3)CC2c2ccco2)cc1` (configuration not stated), inactive: 2.48% [at 0.391 µM]; that for `Cc1ccc(NC(=O)CCSc2nnnn2-c2ccc3c(c2)OCO3)cc1C`, inactive: 1.94% [at 0.196 µM]. Then `COc1ccc(/C=C/C(=O)c2ccccc2)cc1COc1ccc(F)cc1`, with inactive: 4.52% [at 25 µM]; and `Cc1ccccc1NC(=O)CCCSc1nc2ccccc2s1`, with inactive: 1.4% [at 25 µM]; and `CC(C)COc1ccc(/C=C2/Sc3ccccc3C2=O)cc1`, with inactive: 5.31%.

As to `CCOc1ccc(-c2nnc3ccc(SCc4ccc(C(=O)OC)o4)nn23)cc1`, the max inhibition is inactive: 2.44% [at 25 µM]. Then `Cc1ccc(CSc2nc3ccccc3c(=O)n2Cc2ccco2)cc1`, with inactive: 3.33% [at 25 µM]; and `Cn1c(=O)[nH]c(=O)c2c1nc(Sc1ccccc1)n2CCc1ccccc1`, with inactive: 1.45% [at 0.782 µM]. Then `Cc1[nH]c2ccccc2c1/C=N/Nc1ccc([N+](=O)[O-])cc1S(=O)(=O)Nc1ccc(Cl)cc1`, with inactive: 10.3%. The result for `Cc1ccc(C)c(C(=O)COC(=O)c2cc([N+](=O)[O-])ccc2NCCO)c1` reads inactive: 1.46% [at 3.125 µM]; that for `O=C(/C=C/c1ccccc1)N1CCN(c2cccc(Cl)n2)CC1`, inactive: 6.02%.

With `CCOC(=O)CSC1=C(C#N)C(c2ccco2)C(C(=O)OCc2ccccc2)=C(C)N1` (configuration not stated), the max inhibition is inactive: 4.53% [at 25 µM].

As for `CC(=O)Nc1ccc(S(=O)(=O)Nc2nc3ccccc3nc2-n2ccc(=NC(=O)c3ccc(F)cc3)cc2)cc1`, the max inhibition was inactive: 9.72%. The result for `O=C(COC(=O)c1cc(-c2cccc(Br)c2)nc2ccccc12)NCC1CCCO1` (configuration not stated) reads inactive: 1.34% [at 0.391 µM]; that for `COc1cccc(C(=O)CSc2nnc(-c3cc(OC)c(OC)c(OC)c3)o2)c1`, inactive: 3.92% [at 1.563 µM].

`O=C(CCCSc1nnc(SCCCC(=O)c2ccc(F)cc2)s1)c1ccc(F)cc1`: the max inhibition was inactive: 4.44% [at 50 µM]. Take `COc1cccc(-c2csc3nnc(SCC(=O)NCc4cccs4)n23)c1`: the max inhibition is inactive: 4.59%.
